The list shows a part of the results.
Key:
Experiment in all cases: log2 fold change, soluble protein after heating vs DMSO (PISA); higher = thermal stabilisation; K562 lysate, 10 uM; active = over 0.2 and 3.5 SD of the protein, either way, in both replicates (recomputed)
[1] = compound: NCC(=O)Nc1ccc(-n2nc(C(F)(F)F)cc2-c2ccc3c(ccc4ccccc43)c2)cc1
Procedure, shortened: (§1)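 The values are log-two fold changes in thermal stability compared with solvent controls and come from duplicates. They were obtained by TMTpro 16plex LC-MS/MS, with channel sums equalised, on the supernatant after 21,000xg for 90 min. That supernatant came from crude K562 extract at 1 mg/mL protein treated with 10 μM compound for 30 min, heated for 3 min across 48°C-58°C, pooled and brought to 0.5% NP-40 at 4°C.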

The chains behind the UniProt entries cited, without tags or fusion partners. Where a name states a change or a piece, a line headed by the entry shows the natural chain unless it says otherwise.
UniProt Q9H9B1: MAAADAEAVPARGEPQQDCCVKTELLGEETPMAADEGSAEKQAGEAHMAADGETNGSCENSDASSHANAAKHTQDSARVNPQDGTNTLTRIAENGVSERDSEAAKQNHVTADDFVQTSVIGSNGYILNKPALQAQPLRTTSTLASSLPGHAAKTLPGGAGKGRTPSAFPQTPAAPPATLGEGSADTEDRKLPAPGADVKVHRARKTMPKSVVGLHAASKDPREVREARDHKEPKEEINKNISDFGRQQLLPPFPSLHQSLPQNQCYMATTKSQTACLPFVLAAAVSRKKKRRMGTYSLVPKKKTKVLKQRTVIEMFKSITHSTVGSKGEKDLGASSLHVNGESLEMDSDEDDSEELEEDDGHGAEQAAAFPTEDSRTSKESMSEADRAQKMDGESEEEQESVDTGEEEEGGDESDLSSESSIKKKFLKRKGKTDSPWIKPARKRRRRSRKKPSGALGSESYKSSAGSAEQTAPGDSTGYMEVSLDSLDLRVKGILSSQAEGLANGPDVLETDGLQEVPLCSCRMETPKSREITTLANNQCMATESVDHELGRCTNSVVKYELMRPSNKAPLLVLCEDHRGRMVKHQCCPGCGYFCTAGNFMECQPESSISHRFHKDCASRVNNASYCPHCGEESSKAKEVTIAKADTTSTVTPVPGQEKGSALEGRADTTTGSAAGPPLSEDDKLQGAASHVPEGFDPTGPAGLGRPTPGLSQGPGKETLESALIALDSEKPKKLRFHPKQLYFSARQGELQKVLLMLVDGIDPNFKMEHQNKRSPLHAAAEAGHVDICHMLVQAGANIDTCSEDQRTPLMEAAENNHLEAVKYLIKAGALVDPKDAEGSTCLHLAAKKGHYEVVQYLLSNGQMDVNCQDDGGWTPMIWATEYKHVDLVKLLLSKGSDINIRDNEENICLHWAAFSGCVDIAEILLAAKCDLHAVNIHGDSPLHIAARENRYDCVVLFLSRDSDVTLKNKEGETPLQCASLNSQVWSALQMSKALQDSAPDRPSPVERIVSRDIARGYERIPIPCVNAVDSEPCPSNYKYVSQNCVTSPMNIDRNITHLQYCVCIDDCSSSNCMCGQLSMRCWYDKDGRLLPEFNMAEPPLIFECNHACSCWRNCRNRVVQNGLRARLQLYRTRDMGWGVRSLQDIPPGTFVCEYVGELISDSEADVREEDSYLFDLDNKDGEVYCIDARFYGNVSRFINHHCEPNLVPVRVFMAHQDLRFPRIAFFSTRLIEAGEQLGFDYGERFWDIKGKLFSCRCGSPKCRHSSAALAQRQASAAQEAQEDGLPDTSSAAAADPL
UniProt Q15125: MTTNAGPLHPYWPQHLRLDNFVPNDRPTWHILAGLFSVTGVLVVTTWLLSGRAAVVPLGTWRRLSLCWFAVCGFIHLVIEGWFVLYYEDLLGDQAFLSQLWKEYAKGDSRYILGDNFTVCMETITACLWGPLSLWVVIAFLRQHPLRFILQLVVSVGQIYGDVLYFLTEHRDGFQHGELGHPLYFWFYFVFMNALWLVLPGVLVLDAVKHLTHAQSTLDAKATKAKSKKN
UniProt Q9GZT9: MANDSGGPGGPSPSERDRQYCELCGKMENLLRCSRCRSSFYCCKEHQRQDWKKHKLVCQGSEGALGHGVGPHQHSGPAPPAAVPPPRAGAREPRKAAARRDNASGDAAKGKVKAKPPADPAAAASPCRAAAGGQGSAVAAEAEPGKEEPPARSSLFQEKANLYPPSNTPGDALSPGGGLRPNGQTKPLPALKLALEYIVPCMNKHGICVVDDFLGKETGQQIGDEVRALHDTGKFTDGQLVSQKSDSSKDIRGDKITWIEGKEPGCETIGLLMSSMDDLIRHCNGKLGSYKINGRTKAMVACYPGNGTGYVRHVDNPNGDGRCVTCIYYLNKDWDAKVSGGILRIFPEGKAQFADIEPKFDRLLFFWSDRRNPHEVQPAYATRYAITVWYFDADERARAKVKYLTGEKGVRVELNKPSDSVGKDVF
UniProt P42892: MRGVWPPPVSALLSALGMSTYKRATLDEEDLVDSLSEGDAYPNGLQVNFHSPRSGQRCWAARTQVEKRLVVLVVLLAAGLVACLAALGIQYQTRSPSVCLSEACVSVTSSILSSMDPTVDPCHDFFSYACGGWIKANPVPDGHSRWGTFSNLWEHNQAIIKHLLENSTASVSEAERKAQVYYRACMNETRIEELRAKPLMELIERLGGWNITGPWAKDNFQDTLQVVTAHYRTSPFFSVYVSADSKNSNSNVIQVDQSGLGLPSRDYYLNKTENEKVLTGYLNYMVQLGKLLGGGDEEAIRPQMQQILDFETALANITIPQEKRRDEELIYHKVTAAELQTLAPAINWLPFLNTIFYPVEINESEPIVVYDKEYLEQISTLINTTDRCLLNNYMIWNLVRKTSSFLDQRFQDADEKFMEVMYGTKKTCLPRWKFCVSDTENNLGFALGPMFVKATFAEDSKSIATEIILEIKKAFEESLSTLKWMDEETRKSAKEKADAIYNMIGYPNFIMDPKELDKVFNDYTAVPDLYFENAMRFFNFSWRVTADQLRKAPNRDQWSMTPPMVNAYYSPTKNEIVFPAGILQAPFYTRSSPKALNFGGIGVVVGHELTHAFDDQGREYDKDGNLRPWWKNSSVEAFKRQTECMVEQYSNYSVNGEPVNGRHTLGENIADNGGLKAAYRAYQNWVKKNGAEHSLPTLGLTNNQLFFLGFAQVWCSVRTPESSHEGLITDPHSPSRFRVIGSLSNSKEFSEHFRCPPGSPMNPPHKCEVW
UniProt Q8N3D4: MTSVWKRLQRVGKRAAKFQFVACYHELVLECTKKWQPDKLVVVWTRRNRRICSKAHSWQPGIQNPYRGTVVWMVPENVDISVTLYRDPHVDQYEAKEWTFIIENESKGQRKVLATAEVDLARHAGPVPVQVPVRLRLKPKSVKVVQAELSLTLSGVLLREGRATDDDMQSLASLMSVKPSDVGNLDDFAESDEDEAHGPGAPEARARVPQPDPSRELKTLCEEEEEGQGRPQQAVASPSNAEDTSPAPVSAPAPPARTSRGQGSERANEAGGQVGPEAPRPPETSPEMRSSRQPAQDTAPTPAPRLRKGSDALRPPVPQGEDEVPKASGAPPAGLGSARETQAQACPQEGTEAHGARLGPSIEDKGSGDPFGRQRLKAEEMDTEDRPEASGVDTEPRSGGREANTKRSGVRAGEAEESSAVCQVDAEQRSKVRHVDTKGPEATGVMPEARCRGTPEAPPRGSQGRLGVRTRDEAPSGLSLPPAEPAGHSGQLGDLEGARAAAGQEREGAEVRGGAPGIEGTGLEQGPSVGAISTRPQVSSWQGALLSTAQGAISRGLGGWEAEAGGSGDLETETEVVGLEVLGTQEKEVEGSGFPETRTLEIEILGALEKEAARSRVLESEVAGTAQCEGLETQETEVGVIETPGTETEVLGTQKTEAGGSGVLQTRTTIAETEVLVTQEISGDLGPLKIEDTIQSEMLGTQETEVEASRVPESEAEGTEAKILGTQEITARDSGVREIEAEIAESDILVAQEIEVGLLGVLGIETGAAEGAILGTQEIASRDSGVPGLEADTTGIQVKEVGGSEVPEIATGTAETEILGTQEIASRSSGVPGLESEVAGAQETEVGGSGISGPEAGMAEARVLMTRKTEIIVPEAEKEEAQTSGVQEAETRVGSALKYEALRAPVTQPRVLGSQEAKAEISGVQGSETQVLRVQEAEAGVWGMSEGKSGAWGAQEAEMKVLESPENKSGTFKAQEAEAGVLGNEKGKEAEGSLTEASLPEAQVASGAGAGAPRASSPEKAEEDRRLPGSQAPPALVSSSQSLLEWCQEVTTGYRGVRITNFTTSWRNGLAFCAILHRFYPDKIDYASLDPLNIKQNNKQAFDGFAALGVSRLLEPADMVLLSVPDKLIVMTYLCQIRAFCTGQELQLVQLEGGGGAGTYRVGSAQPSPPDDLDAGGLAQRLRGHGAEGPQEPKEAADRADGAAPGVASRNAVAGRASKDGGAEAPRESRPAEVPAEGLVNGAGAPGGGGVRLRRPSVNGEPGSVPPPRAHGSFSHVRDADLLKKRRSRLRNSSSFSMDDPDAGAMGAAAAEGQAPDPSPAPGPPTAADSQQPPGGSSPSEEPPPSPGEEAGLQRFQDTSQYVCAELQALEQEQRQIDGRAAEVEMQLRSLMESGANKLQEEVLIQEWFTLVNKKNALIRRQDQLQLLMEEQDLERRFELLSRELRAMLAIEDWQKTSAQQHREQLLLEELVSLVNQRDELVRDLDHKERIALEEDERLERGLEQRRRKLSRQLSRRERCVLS
UniProt P51452: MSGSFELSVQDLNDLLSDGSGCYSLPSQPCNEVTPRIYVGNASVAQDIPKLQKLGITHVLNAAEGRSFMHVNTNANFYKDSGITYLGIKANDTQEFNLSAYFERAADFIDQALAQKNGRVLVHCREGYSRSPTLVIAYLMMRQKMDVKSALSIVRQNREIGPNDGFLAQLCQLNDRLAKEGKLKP
UniProt Q9BQC3: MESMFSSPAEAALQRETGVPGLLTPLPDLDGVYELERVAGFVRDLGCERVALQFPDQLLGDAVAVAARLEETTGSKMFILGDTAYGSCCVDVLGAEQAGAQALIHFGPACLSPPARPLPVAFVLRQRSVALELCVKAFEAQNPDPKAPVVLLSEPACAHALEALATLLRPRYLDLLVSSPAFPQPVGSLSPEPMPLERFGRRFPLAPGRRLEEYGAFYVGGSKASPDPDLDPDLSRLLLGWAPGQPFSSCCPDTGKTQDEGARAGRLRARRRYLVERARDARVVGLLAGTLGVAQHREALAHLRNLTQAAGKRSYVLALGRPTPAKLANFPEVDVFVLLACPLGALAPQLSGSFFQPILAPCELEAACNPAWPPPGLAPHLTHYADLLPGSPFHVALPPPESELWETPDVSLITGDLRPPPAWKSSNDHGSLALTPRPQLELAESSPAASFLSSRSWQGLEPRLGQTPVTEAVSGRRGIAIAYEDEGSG
UniProt Q96F86: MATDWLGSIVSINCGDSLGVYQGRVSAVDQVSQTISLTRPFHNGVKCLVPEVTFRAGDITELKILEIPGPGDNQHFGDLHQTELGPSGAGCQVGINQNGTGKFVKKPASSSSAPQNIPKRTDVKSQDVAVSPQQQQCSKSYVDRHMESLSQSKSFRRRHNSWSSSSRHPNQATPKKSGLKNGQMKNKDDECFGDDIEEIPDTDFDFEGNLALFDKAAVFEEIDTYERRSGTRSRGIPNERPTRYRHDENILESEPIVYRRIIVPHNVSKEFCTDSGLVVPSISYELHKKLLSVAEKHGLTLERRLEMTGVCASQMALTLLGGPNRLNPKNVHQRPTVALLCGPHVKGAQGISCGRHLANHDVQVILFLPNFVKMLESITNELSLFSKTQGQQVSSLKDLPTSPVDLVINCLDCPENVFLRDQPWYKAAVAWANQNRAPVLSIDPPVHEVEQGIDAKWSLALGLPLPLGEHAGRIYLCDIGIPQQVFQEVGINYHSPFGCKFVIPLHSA

vorinostat = compound: O=C(CCCCCCC(=O)Nc1ccccc1)NO [vorinostat]
Procedure, shortened: as §1

silmitasertib = compound: O=C(O)c1ccc2c(c1)nc(Nc1cccc(Cl)c1)c1ccncc12 [silmitasertib]
Procedure, shortened: as §1

[2] = compound: O=C1NC(=O)C(c2cnc3ccccn23)=C1c1cn2c3c(cc(F)cc13)CN(C(=O)N1CCCCC1)CC2
Procedure, shortened: as §1

entospletinib = compound: c1cn2cc(-c3ccc4cn[nH]c4c3)nc(Nc3ccc(N4CCOCC4)cc3)c2n1 [entospletinib]
Procedure, shortened: as §1

| Target | log2 fold change [1] | log2 fold change (vorinostat) | log2 fold change (silmitasertib) | log2 fold change [2] | log2 fold change (entospletinib) |
| --- | --- | --- | --- | --- | --- |
| EHMT1 (UniProt Q9H9B1) | inactive: 0.085 | inactive: -0.107 | inactive: -0.049 | inactive: -0.005 | inactive: -0.014 |
| EBP (UniProt Q15125) | inactive: 0.134 | inactive: 0.1 | inactive: -0.033 | inactive: 0.097 | inactive: 0.013 |
| EGLN1 (UniProt Q9GZT9) | inactive: 0.008 | active: -0.395 | inactive: 0.025 | inactive: -0.024 | inactive: -0.009 |
| ECE1 (UniProt P42892) | inactive: 0.018 | inactive: 0.135 | inactive: 0.012 | inactive: -0.018 | inactive: 0.032 |
| EHBP1L1 (UniProt Q8N3D4) | inactive: 0.024 | inactive: -0.09 | inactive: 0.059 | inactive: -0.011 | inactive: -0.018 |
| DUSP3 (UniProt P51452) | inactive: 0.018 | inactive: 0.022 | inactive: -0.026 | inactive: 0.04 | inactive: 0.005 |
| DPH2 (UniProt Q9BQC3) | inactive: -0.023 | inactive: 0.027 | inactive: 0.002 | inactive: 0.019 | inactive: 0 |
| DYRK1A (UniProt Q13627) | inactive: 0.021 | inactive: -0.253 | active: 0.247 | inactive: 0.01 | inactive: 0.005 |
| EDC3 (UniProt Q96F86) | inactive: 0.02 | active: -0.277 | inactive: 0 | inactive: -0.026 | inactive: 0.013 |
